At least one compound was matched to its structure with a doubt left.
Assays:
Type in all cases: cell-based
Candida albicans = experiment: Antimicrobial testing by agar dilution, Candida albicans
Experimental: (§1) The antimicrobial properties of the 4,5-bis(4-chlorophenyl)-1-hexyl-2-(3-hydroxy-4-methoxyphenyl)-1H-imidazole (5) were studied by the method of agar dilution. Test solutions of each compound were prepared in concentration of 1% using dimethylformamide as a solvent then they are diluted in physiological solution to obtain the final experimental dilutions 1:100, 1:200, 1:400, 1:800. The effect of these substances were compared with furacillin in a controllable study. The testing microbes used were gram positive bacteria Staphylococcus aureus, gram negative bacteria Escherichia coli, Pseudomonas aeruginosa and Candida albicans fungi were taken. The experiments used for this survey were meat-pentonlu agar (EPA) for cultivation of bacteria and Saburo environment for fungi. Each experiment used 1 ml of test solution on each plate 500 min. Add 2 drops of emulsified with microbes feel. All experimental samples were taken from the agar after 10, 20, 40, 60 minutes in the environment on the basis of Patrk planted. Bacteria were cultivated at a temperature of 37° C. for 1 day and the mushroom was kept in a thermostat for 2 hours at a temperature of 28° C. in the. Then results were checked.

Staphylococcus aureus = experiment: Antimicrobial testing by agar dilution, Staphylococcus aureus
Experimental: as §1

Pseudomonas aeruginosa = experiment: Antimicrobial testing by agar dilution, Pseudomonas aeruginosa
Experimental: as §1

Escherichia coli = experiment: Antimicrobial testing by agar dilution, Escherichia coli
Experimental: as §1

[1] = dilution rate 1:100, exposure time 10 min
[2] = dilution rate 1:100, exposure time 20 min
[3] = dilution rate 1:100, exposure time 40 min
[4] = dilution rate 1:100, exposure time 60 min
[5] = dilution rate 1:200, exposure time 10 min
[6] = dilution rate 1:200, exposure time 20 min
[7] = dilution rate 1:200, exposure time 40 min
[8] = dilution rate 1:200, exposure time 60 min
[9] = dilution rate 1:400, exposure time 10 min
[10] = dilution rate 1:400, exposure time 20 min
[11] = dilution rate 1:400, exposure time 40 min
[12] = dilution rate 1:400, exposure time 60 min
[13] = dilution rate 1:800, exposure time 10 min
[14] = dilution rate 1:800, exposure time 20 min
[15] = dilution rate 1:800, exposure time 40 min
[16] = dilution rate 1:800, exposure time 60 min

NC(=O)N/N=C/c1ccc([N+](=O)[O-])o1 [Furacilin]
−: antimicrobial activity, Candida albicans (Candida albicans; [1]) | antimicrobial activity, Candida albicans (Candida albicans; [2]) | antimicrobial activity, St. Aereus (Staphylococcus aureus; [1]) | antimicrobial activity, St. Aereus (Staphylococcus aureus; [2]) | antimicrobial activity, St. Aereus (Staphylococcus aureus; [3]) | antimicrobial activity, St. Aereus (Staphylococcus aureus; [4]) | antimicrobial activity, E. Coli (Escherichia coli; [1]) | antimicrobial activity, E. Coli (Escherichia coli; [2]) | antimicrobial activity, E. Coli (Escherichia coli; [3]) | antimicrobial activity, E. Coli (Escherichia coli; [4])
+: antimicrobial activity, Candida albicans (Candida albicans; [3]) | antimicrobial activity, Candida albicans (Candida albicans; [4]) | antimicrobial activity, Candida albicans (Candida albicans; [5]) | antimicrobial activity, Candida albicans (Candida albicans; [6]) | antimicrobial activity, Candida albicans (Candida albicans; [7]) | antimicrobial activity, Candida albicans (Candida albicans; [8]) | antimicrobial activity, Candida albicans (Candida albicans; [9]) | antimicrobial activity, Candida albicans (Candida albicans; [10]) | antimicrobial activity, Candida albicans (Candida albicans; [11]) | antimicrobial activity, Candida albicans (Candida albicans; [12]) | antimicrobial activity, Candida albicans (Candida albicans; [13]) | antimicrobial activity, Candida albicans (Candida albicans; [14]) | antimicrobial activity, Candida albicans (Candida albicans; [15]) | antimicrobial activity, Candida albicans (Candida albicans; [16]) | antimicrobial activity, St. Aereus (Staphylococcus aureus; [5]) | antimicrobial activity, St. Aereus (Staphylococcus aureus; [6]) | antimicrobial activity, St. Aereus (Staphylococcus aureus; [7]) | antimicrobial activity, St. Aereus (Staphylococcus aureus; [8]) | antimicrobial activity, St. Aereus (Staphylococcus aureus; [9]) | antimicrobial activity, St. Aereus (Staphylococcus aureus; [10]) | antimicrobial activity, St. Aereus (Staphylococcus aureus; [11]) | antimicrobial activity, St. Aereus (Staphylococcus aureus; [12]) | antimicrobial activity, St. Aereus (Staphylococcus aureus; [13]) | antimicrobial activity, St. Aereus (Staphylococcus aureus; [14]) | antimicrobial activity, St. Aereus (Staphylococcus aureus; [15]) | antimicrobial activity, St. Aereus (Staphylococcus aureus; [16]) | antimicrobial activity, Ps. aeruginosa (Pseudomonas aeruginosa; [1]) | antimicrobial activity, Ps. aeruginosa (Pseudomonas aeruginosa; [2]) | antimicrobial activity, Ps. aeruginosa (Pseudomonas aeruginosa; [3]) | antimicrobial activity, Ps. aeruginosa (Pseudomonas aeruginosa; [4]) | antimicrobial activity, Ps. aeruginosa (Pseudomonas aeruginosa; [5]) | antimicrobial activity, Ps. aeruginosa (Pseudomonas aeruginosa; [6]) | antimicrobial activity, Ps. aeruginosa (Pseudomonas aeruginosa; [7]) | antimicrobial activity, Ps. aeruginosa (Pseudomonas aeruginosa; [8]) | antimicrobial activity, Ps. aeruginosa (Pseudomonas aeruginosa; [9]) | antimicrobial activity, Ps. aeruginosa (Pseudomonas aeruginosa; [10]) | antimicrobial activity, Ps. aeruginosa (Pseudomonas aeruginosa; [11]) | antimicrobial activity, Ps. aeruginosa (Pseudomonas aeruginosa; [12]) | antimicrobial activity, Ps. aeruginosa (Pseudomonas aeruginosa; [13]) | antimicrobial activity, Ps. aeruginosa (Pseudomonas aeruginosa; [14]) | antimicrobial activity, Ps. aeruginosa (Pseudomonas aeruginosa; [15]) | antimicrobial activity, Ps. aeruginosa (Pseudomonas aeruginosa; [16]) | antimicrobial activity, E. Coli (Escherichia coli; [5]) | antimicrobial activity, E. Coli (Escherichia coli; [6]) | antimicrobial activity, E. Coli (Escherichia coli; [7]) | antimicrobial activity, E. Coli (Escherichia coli; [8]) | antimicrobial activity, E. Coli (Escherichia coli; [9]) | antimicrobial activity, E. Coli (Escherichia coli; [10]) | antimicrobial activity, E. Coli (Escherichia coli; [11]) | antimicrobial activity, E. Coli (Escherichia coli; [12]) | antimicrobial activity, E. Coli (Escherichia coli; [13]) | antimicrobial activity, E. Coli (Escherichia coli; [14]) | antimicrobial activity, E. Coli (Escherichia coli; [15]) | antimicrobial activity, E. Coli (Escherichia coli; [16])

Reference: patent US11981640B1, “4,5-bis(4-chlorophenyl)-1-hexyl-2-(3-hydroxy-4-methoxyphenyl)-1H-imidazole as an antimicrobial compound” (KING FAISAL UNIVERSITY, priority 2023, dated 2024)
